{
  "source": "the supplement of paper PMC10470496",
  "note": "Counter-ions that a name gives are not always drawn. The list shows a part of the results. Single values are uncertain, as repeats are few or missing.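 Three clinical Candida auris isolates (clades III, IV and I) from the CDC resistance isolate bank were grown in RPMI-1640 at 35°C. Growth was background-corrected OD600 relative to same-plate vehicle-only wells. Hits required over 50% inhibition in at least two strains and a plate-corrected B-score above 0.1.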",
  "data": [
    {"system": "C. auris AR-386", "assay": "growth relative to vehicle control (OD600 ratio) (fraction); higher = less inhibition", "details": "10 µM; 24 h", "values": [
      {"molecule": "COc1ncc(-c2ccc3nccc(-c4ccnnc4)c3c2)cc1NS(=O)(=O)c1ccc(F)cc1F", "growth": 1.13},
      {"molecule": "OCc1cc(C(O)CNCCCCCCOCCCCc2ccccc2)ccc1O", "note": "(stereo unspecified) [Salmeterol Xinafoate]", "growth": 0.88},
      {"molecule": "Cc1ncc(C[n+]2csc(CCO)c2C)c(N)n1", "note": "[Thiamine HCl (Vitamin B1)]", "growth": 0.77},
      {"molecule": "Nc1cccc2c1CN(C1CCC(=O)NC1=O)C2=O", "note": "(stereo unspecified) [Lenalidomide (CC-5013)]", "growth": 0.92},
      {"molecule": "C#C[C@]1(OC(C)=O)CC[C@H]2[C@@H]3CCC4=C[C@@H](OC(C)=O)CC[C@@H]4[C@H]3CC[C@@]21C", "note": "[Ethynodiol diacetate]", "growth": 0.71},
      {"molecule": "Cc1ccc(NC(=O)c2ccc(CN3CC[C@H](N(C)C)C3)c(C(F)(F)F)c2)cc1Nc1nccc(-c2cncnc2)n1", "note": "[Bafetinib (INNO-406)]", "growth": 0.99},
      {"molecule": "CN(C)C/C=C/C(=O)Nc1cc2c(Nc3ccc(F)c(Cl)c3)ncnc2cc1O[C@H]1CCOC1", "note": "[Afatinib (BIBW2992)]", "growth": 0.58},
      {"molecule": "CN1C(C(=O)Nc2ccccn2)=C(O)c2ccccc2S1(=O)=O", "note": "[Piroxicam]", "growth": 0.73},
      {"molecule": "Cc1ccnc2c1NC(=O)c1cccnc1N2C1CC1", "note": "[Nevirapine]", "growth": 1.13},
      {"molecule": "C[N+]1(C)[C@@H]2C[C@@H](OC(=O)C(O)(c3cccs3)c3cccs3)C[C@H]1[C@@H]1O[C@@H]12", "note": "[Tiotropium Bromide hydrate]", "growth": 0.81},
      {"molecule": "CCCN(CCC)CCc1cccc2c1CC(=O)N2", "note": "[Ropinirole HCl]", "growth": 0.96},
      {"molecule": "Cc1ncc(CO)c(CO)c1O", "note": "[Pyridoxine HCl]", "growth": 0.66},
      {"molecule": "COc1cc(/C=C/C(=O)N2CCN(CC(=O)N3CCCC3)CC2)cc(OC)c1OC", "note": "[Cinepazide maleate]", "growth": 1.06},
      {"molecule": "O=c1[nH]cnc2c1ncn2[C@H]1CC[C@@H](CO)O1", "note": "[Didanosine]", "growth": 0.74},
      {"molecule": "Clc1ccc2nsnc2c1NC1=NCCN1", "note": "[Tizanidine HCl]", "growth": 1.11},
      {"molecule": "CC(=O)Oc1cc2c(s1)CCN(C(C(=O)C1CC1)c1ccccc1F)C2", "note": "(stereo unspecified) [Prasugrel]", "growth": 0.85},
      {"molecule": "CN1CCN(c2nc(C3=C(c4c[nH]c5ccccc45)C(=O)NC3=O)c3ccccc3n2)CC1", "note": "[Sotrastaurin]", "growth": 0.82},
      {"molecule": "COc1cc2ncnc(Nc3ccc(F)c(Cl)c3)c2cc1OCCCN1CCOCC1", "note": "[Gefitinib (ZD1839)]", "growth": 0.72},
      {"molecule": "CCCCOc1cc(C(=O)OCCN(CC)CC)ccc1N", "note": "[Oxybuprocaine HCl]", "growth": 1.09},
      {"molecule": "C[C@@H](c1nc(-c2ccc(C#N)cc2)cs1)[C@](O)(Cn1cncn1)c1cc(F)ccc1F", "note": "[Isavuconazole]", "growth": 0.01},
      {"molecule": "CCCC(=O)Nc1ccc(OCC(O)CNC(C)C)c(C(C)=O)c1", "note": "(stereo unspecified) [Acebutolol HCl]", "growth": 0.71},
      {"molecule": "CCOc1cc2ncc(C#N)c(Nc3ccc(F)c(Cl)c3)c2cc1NC(=O)/C=C/CN(C)C", "note": "[Pelitinib (EKB-569)]", "growth": 1.1},
      {"molecule": "NC(=O)OCC(COC(N)=O)c1ccccc1", "note": "[Felbamate]", "growth": 1.28},
      {"molecule": "Cc1c(-c2ccc(O)cc2)n(Cc2ccc(OCCN3CCCCCC3)cc2)c2ccc(O)cc12", "note": "[Bazedoxifene Acetate]", "growth": 0.74},
      {"molecule": "CCn1cc(C(=O)O)c(=O)c2cc(F)c(N3CCNCC3)nc21", "note": "[Enoxacin]", "growth": 1.06},
      {"molecule": "CC(C)(O/N=C(\\C(=O)N[C@@H]1C(=O)N2C(C(=O)[O-])=C(C[n+]3ccccc3)CS[C@H]12)c1csc(N)n1)C(=O)O", "note": "[Ceftazidime Pentahydrate]", "growth": 1.26},
      {"molecule": "Cc1ccc(S(=O)(=O)NC(=O)NN2CC3CCCC3C2)cc1", "note": "(stereo unspecified) [Gliclazide]", "growth": 0.89}
    ]},
    {"system": "C. auris AR-387", "assay": "growth relative to vehicle control (OD600 ratio) (fraction); higher = less inhibition", "details": "1 µM; 24 h", "values": [
      {"molecule": "CC(=O)OC(C)C[N+](C)(C)C", "note": "(stereo unspecified) [Methacholine chloride]", "growth": 0.99},
      {"molecule": "CCCC1O[C@@H]2C[C@H]3[C@@H]4CCC5=CC(=O)C=C[C@]5(C)[C@H]4[C@@H](O)C[C@]3(C)[C@]2(C(=O)CO)O1", "note": "(stereo partly specified) [Budesonide]", "growth": 1.07},
      {"molecule": "COCCCOc1ccnc(C[S+]([O-])c2nc3ccccc3[nH]2)c1C", "note": "(stereo unspecified) [Rebeprazole sodium]", "growth": 0.68},
      {"molecule": "Cc1nc2c([nH]1)-c1ccccc1N(C(=O)c1ccc(NC(=O)c3ccccc3-c3ccccc3)cc1)CC2", "note": "[Conivaptan HCl]", "growth": 0.91},
      {"molecule": "O=C1CN(/N=C/c2ccc([N+](=O)[O-])o2)C(=O)N1", "note": "[Nitrofurantoin]", "growth": 0.65},
      {"molecule": "Cc1noc(NS(=O)(=O)c2ccc(N)cc2)c1C", "note": "[Sulfisoxazole]", "growth": 0.66},
      {"molecule": "C[C@@H]1C[C@H]2[C@@H]3CCC4=CC(=O)C=C[C@]4(C)[C@@]3(F)[C@@H](O)C[C@]2(C)[C@@]1(O)C(=O)CO", "note": "[Dexamethasone (DHAP)]", "growth": 0.67},
      {"molecule": "COc1cc2nc(N3CCN(C(=O)C4CCCO4)CC3)nc(N)c2cc1OC", "note": "(stereo unspecified) [Terazosin HCl]", "growth": 0.65},
      {"molecule": "COCCCN1CCC(NC(=O)c2cc(Cl)c(N)c3c2OCC3)CC1", "note": "[Prucalopride]", "growth": 1.2},
      {"molecule": "COc1cccc2c1C(=O)c1c(O)c3c(c(O)c1C2=O)C[C@@](O)(C(C)=O)C[C@@H]3O[C@H]1C[C@H](N)[C@H](O)[C@H](C)O1", "note": "[Daunorubicin HCl]", "growth": 0.53},
      {"molecule": "CC(=O)OCC[N+](C)(C)C", "note": "[Acetylcholine Chloride]", "growth": 0.74},
      {"molecule": "NC(=O)N1CCC(CC(=O)N2CCC([C@H]3c4ncc(Br)cc4CCc4cc(Cl)cc(Br)c43)CC2)CC1", "note": "[Lonafarnib]", "growth": 0.95},
      {"molecule": "COc1ncc(-c2ccc3nccc(-c4ccnnc4)c3c2)cc1NS(=O)(=O)c1ccc(F)cc1F", "growth": 0.99},
      {"molecule": "OCc1cc(C(O)CNCCCCCCOCCCCc2ccccc2)ccc1O", "note": "(stereo unspecified) [Salmeterol Xinafoate]", "growth": 1},
      {"molecule": "Cc1ncc(C[n+]2csc(CCO)c2C)c(N)n1", "note": "[Thiamine HCl (Vitamin B1)]", "growth": 1.07},
      {"molecule": "Nc1cccc2c1CN(C1CCC(=O)NC1=O)C2=O", "note": "(stereo unspecified) [Lenalidomide (CC-5013)]", "growth": 0.8},
      {"molecule": "C#C[C@]1(OC(C)=O)CC[C@H]2[C@@H]3CCC4=C[C@@H](OC(C)=O)CC[C@@H]4[C@H]3CC[C@@]21C", "note": "[Ethynodiol diacetate]", "growth": 0.81},
      {"molecule": "Cc1ccc(NC(=O)c2ccc(CN3CC[C@H](N(C)C)C3)c(C(F)(F)F)c2)cc1Nc1nccc(-c2cncnc2)n1", "note": "[Bafetinib (INNO-406)]", "growth": 0.85},
      {"molecule": "CN(C)C/C=C/C(=O)Nc1cc2c(Nc3ccc(F)c(Cl)c3)ncnc2cc1O[C@H]1CCOC1", "note": "[Afatinib (BIBW2992)]", "growth": 0.9},
      {"molecule": "CN1C(C(=O)Nc2ccccn2)=C(O)c2ccccc2S1(=O)=O", "note": "[Piroxicam]", "growth": 0.66},
      {"molecule": "Cc1ccnc2c1NC(=O)c1cccnc1N2C1CC1", "note": "[Nevirapine]", "growth": 1.06},
      {"molecule": "C[N+]1(C)[C@@H]2C[C@@H](OC(=O)C(O)(c3cccs3)c3cccs3)C[C@H]1[C@@H]1O[C@@H]12", "note": "[Tiotropium Bromide hydrate]", "growth": 0.7},
      {"molecule": "CCCN(CCC)CCc1cccc2c1CC(=O)N2", "note": "[Ropinirole HCl]", "growth": 0.69},
      {"molecule": "Cc1ncc(CO)c(CO)c1O", "note": "[Pyridoxine HCl]", "growth": 0.68},
      {"molecule": "COc1cc(/C=C/C(=O)N2CCN(CC(=O)N3CCCC3)CC2)cc(OC)c1OC", "note": "[Cinepazide maleate]", "growth": 1.15},
      {"molecule": "O=c1[nH]cnc2c1ncn2[C@H]1CC[C@@H](CO)O1", "note": "[Didanosine]", "growth": 0.77},
      {"molecule": "Clc1ccc2nsnc2c1NC1=NCCN1", "note": "[Tizanidine HCl]", "growth": 0.89},
      {"molecule": "CC(=O)Oc1cc2c(s1)CCN(C(C(=O)C1CC1)c1ccccc1F)C2", "note": "(stereo unspecified) [Prasugrel]", "growth": 0.7},
      {"molecule": "CN1CCN(c2nc(C3=C(c4c[nH]c5ccccc45)C(=O)NC3=O)c3ccccc3n2)CC1", "note": "[Sotrastaurin]", "growth": 0.76},
      {"molecule": "COc1cc2ncnc(Nc3ccc(F)c(Cl)c3)c2cc1OCCCN1CCOCC1", "note": "[Gefitinib (ZD1839)]", "growth": 0.91},
      {"molecule": "CCCCOc1cc(C(=O)OCCN(CC)CC)ccc1N", "note": "[Oxybuprocaine HCl]", "growth": 1.15},
      {"molecule": "C[C@@H](c1nc(-c2ccc(C#N)cc2)cs1)[C@](O)(Cn1cncn1)c1cc(F)ccc1F", "note": "[Isavuconazole]", "growth": 0.03},
      {"molecule": "CCCC(=O)Nc1ccc(OCC(O)CNC(C)C)c(C(C)=O)c1", "note": "(stereo unspecified) [Acebutolol HCl]", "growth": 0.74},
      {"molecule": "CCOc1cc2ncc(C#N)c(Nc3ccc(F)c(Cl)c3)c2cc1NC(=O)/C=C/CN(C)C", "note": "[Pelitinib (EKB-569)]", "growth": 1.01},
      {"molecule": "NC(=O)OCC(COC(N)=O)c1ccccc1", "note": "[Felbamate]", "growth": 1.4},
      {"molecule": "Cc1c(-c2ccc(O)cc2)n(Cc2ccc(OCCN3CCCCCC3)cc2)c2ccc(O)cc12", "note": "[Bazedoxifene Acetate]", "growth": 0.7},
      {"molecule": "CCn1cc(C(=O)O)c(=O)c2cc(F)c(N3CCNCC3)nc21", "note": "[Enoxacin]", "growth": 1.16},
      {"molecule": "CC(C)(O/N=C(\\C(=O)N[C@@H]1C(=O)N2C(C(=O)[O-])=C(C[n+]3ccccc3)CS[C@H]12)c1csc(N)n1)C(=O)O", "note": "[Ceftazidime Pentahydrate]", "growth": 1.39},
      {"molecule": "Cc1ccc(S(=O)(=O)NC(=O)NN2CC3CCCC3C2)cc1", "note": "(stereo unspecified) [Gliclazide]", "growth": 0.66}
    ]}
  ]
}
